Experimental data as given in the supplement of paper PMC7666118.
This is one part of the list.

Sequences of proteins named here, by UniProt entry; tags and fusion partners are left off. A change or cut given only in a name is not applied to a line headed by its entry.
UniProt Q9Y263: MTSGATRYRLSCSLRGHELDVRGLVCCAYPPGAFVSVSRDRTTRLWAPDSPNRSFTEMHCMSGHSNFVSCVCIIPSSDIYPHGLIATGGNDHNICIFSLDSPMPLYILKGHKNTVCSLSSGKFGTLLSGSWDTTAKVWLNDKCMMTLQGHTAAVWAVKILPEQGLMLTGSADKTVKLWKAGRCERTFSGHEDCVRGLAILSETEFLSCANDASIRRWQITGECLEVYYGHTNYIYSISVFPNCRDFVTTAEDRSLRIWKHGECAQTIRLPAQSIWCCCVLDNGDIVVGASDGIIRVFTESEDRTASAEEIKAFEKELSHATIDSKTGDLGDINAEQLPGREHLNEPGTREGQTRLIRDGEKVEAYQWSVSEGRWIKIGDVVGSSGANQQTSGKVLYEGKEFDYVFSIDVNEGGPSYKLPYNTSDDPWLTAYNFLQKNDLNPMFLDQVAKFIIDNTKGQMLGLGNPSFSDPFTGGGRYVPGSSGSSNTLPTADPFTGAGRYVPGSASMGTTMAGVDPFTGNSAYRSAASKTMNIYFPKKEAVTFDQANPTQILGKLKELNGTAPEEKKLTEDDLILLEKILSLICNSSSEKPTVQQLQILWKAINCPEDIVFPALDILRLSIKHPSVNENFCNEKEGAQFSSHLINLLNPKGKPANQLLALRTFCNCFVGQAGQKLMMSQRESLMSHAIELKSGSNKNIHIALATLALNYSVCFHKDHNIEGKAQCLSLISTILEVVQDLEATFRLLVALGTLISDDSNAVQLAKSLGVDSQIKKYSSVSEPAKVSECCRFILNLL
UniProt Q8TBF5: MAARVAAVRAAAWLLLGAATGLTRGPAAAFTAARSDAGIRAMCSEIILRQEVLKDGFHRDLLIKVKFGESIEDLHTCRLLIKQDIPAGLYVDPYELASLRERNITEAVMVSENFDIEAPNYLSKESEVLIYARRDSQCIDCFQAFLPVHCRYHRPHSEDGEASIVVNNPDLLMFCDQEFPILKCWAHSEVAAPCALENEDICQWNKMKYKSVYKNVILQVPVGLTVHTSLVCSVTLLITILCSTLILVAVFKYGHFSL
UniProt Q01804: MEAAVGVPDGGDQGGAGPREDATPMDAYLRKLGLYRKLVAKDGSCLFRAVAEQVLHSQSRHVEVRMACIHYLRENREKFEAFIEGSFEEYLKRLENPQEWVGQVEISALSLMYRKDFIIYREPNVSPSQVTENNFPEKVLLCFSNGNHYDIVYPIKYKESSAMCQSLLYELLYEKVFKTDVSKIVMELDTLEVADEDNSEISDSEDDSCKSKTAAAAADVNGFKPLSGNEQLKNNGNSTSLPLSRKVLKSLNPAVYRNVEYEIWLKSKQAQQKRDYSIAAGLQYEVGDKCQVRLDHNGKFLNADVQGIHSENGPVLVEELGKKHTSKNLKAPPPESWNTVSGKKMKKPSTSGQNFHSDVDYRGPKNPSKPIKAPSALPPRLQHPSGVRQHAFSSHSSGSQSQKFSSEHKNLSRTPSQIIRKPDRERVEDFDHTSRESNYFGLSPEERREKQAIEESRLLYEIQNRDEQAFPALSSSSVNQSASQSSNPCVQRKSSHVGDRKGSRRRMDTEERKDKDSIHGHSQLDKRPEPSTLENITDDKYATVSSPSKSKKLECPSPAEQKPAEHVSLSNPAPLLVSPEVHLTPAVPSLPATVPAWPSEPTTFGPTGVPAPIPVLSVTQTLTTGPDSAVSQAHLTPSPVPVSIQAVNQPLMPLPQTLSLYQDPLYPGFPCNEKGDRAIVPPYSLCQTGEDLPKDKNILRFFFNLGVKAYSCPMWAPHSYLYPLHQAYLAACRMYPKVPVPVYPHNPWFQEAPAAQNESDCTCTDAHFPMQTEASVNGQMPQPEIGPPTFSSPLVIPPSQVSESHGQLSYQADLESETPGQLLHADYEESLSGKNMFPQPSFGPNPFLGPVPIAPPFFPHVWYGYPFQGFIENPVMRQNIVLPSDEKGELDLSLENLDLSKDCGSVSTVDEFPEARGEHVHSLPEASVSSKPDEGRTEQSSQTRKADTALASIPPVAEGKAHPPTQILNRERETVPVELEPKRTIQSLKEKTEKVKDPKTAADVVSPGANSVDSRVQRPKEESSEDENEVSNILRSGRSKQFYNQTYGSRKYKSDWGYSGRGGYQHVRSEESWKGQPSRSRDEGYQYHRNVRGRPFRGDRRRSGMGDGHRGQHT
UniProt O43482, whole entry: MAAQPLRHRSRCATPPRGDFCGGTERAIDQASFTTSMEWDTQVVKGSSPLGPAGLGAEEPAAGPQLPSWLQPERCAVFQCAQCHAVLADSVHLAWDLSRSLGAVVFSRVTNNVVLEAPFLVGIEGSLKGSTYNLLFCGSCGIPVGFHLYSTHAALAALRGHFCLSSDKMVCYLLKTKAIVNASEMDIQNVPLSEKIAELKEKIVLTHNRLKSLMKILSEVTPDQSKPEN
UniProt Q92968: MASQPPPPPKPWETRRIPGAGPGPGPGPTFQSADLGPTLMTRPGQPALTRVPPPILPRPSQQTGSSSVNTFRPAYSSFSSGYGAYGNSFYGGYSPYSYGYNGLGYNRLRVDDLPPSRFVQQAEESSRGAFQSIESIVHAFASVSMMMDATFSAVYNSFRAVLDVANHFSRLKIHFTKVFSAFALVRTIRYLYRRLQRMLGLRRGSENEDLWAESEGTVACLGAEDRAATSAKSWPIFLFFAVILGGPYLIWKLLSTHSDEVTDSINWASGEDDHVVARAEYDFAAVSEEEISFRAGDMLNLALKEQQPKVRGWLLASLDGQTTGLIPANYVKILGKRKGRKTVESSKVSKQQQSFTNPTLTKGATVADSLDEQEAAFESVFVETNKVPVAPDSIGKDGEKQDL
UniProt Q15365, whole entry: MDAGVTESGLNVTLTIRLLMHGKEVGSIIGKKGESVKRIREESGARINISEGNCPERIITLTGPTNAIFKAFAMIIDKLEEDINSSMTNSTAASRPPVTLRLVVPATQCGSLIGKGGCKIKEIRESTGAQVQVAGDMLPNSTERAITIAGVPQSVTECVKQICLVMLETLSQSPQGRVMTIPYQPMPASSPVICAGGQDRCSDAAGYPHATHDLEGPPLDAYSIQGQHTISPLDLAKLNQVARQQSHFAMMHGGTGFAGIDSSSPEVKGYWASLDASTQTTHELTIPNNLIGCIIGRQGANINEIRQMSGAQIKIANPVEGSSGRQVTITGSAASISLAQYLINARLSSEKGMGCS
UniProt P40855: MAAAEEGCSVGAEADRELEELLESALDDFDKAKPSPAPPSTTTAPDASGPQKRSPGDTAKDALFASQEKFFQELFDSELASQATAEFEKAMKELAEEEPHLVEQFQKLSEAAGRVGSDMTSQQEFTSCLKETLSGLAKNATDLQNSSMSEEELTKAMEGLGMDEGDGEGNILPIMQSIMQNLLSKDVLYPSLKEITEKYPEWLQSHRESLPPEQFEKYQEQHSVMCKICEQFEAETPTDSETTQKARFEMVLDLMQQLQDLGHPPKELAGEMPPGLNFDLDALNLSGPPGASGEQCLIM
UniProt Q13442: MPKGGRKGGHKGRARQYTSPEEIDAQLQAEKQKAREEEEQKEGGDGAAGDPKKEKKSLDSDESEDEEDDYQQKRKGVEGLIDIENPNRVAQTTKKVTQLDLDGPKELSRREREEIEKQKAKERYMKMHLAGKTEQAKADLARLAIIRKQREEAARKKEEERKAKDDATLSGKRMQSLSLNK
UniProt Q15121, whole entry: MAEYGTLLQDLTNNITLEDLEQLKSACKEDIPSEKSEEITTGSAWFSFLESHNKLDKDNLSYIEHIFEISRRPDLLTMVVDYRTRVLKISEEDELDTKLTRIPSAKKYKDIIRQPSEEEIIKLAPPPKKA
UniProt O14737: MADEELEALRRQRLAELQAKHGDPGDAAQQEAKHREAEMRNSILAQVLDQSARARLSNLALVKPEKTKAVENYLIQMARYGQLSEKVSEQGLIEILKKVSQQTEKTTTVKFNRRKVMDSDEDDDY
UniProt O15067: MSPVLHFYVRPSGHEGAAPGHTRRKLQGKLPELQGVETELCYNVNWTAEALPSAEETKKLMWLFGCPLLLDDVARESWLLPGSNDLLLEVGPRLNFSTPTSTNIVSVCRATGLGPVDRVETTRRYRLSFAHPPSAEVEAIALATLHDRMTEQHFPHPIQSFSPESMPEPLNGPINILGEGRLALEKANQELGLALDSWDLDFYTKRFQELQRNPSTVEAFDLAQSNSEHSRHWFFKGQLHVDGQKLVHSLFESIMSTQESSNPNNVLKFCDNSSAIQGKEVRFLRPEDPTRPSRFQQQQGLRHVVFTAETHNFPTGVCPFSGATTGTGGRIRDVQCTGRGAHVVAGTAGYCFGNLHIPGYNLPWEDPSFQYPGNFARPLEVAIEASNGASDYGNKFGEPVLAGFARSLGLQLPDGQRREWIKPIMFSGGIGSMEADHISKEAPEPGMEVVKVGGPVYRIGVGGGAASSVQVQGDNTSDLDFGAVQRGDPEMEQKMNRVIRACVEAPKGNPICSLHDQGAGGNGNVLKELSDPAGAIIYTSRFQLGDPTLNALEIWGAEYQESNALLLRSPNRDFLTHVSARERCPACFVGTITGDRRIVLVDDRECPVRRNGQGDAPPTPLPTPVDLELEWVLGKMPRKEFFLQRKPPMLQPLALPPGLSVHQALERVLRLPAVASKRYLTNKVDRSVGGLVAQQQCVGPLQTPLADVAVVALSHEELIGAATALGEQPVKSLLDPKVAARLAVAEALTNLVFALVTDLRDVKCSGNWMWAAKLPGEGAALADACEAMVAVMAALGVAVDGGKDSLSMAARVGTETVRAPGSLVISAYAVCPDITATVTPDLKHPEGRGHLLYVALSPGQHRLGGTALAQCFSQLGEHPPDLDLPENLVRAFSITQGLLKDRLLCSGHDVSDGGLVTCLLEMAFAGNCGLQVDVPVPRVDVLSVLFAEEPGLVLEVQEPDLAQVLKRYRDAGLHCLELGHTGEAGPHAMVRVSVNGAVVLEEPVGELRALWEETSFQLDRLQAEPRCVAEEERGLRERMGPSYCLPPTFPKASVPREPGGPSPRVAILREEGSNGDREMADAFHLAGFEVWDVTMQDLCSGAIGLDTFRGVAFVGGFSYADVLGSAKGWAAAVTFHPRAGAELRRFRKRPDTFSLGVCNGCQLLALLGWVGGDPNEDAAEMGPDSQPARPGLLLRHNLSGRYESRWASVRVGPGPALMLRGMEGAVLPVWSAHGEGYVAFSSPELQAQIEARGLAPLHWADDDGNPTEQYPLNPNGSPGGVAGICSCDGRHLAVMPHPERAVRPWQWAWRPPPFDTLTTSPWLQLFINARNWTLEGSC
UniProt Q9NR12, whole entry: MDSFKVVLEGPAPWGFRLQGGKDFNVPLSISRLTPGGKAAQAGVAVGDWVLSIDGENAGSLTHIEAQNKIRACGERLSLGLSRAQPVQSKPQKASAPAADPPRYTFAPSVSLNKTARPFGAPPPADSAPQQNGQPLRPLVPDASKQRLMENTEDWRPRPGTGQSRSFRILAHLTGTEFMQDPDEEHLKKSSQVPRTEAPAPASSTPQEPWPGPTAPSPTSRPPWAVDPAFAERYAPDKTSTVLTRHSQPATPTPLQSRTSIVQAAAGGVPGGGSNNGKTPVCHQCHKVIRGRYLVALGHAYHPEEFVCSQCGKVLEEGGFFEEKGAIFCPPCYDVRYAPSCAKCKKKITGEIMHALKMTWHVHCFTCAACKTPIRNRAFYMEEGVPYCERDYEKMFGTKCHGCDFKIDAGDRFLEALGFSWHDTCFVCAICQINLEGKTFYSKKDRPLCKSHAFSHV
UniProt O43924: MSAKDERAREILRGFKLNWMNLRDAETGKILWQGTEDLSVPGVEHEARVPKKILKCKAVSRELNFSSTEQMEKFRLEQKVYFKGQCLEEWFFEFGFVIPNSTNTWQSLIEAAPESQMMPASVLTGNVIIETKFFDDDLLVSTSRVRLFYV
UniProt O00459, whole entry: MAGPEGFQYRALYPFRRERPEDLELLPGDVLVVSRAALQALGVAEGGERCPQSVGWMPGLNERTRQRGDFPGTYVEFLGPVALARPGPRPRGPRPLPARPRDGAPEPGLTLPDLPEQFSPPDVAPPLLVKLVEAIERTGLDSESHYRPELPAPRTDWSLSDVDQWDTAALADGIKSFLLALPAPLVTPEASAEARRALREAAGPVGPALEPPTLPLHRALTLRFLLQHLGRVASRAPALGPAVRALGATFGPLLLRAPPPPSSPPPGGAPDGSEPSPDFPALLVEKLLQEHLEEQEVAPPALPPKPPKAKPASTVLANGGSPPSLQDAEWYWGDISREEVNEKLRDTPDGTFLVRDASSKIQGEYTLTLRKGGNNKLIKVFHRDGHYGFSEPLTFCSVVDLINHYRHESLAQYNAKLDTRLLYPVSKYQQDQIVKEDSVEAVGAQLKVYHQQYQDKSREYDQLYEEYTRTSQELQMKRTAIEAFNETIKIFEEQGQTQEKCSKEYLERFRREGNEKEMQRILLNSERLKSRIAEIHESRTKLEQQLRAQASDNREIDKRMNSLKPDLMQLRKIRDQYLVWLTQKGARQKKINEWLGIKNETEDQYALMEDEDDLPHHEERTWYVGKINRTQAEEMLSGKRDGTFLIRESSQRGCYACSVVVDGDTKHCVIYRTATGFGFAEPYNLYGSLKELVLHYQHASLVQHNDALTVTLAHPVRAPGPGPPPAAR

Compound: COc1ccc(Cn2ccc3cc(C)c(C(=O)NO)cc32)cc1
Assay: dose-dependent thermal stabilisation call (2D-TPP, DLPTP, 10% FDR) (binary (1 = stabilised)); higher = stabilised by the compound
Settings: system: HL-60 intact cells; concentration range 0.04-10 µM
Experimental: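 2D thermal proteome profiling in intact HL-60 cells treated with BRD-3811 (0, 0.04, 0.29, 2, 10 uM) for 90 min at 37 C, then heated 3 min at one of 12 temperatures (42-63.9 C). Soluble protein was quantified by TMT10 MS. The value is the DLPTP call of the paper: dose-dependent thermal stabilisation over all temperatures at 10% FDR (F-test of a dose-response against a flat model); one experiment, one call per tested protein.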

Target | dose-dependent thermal stabilisation call
PLAA (UniProt Q9Y263) | inactive: 0
PES1 (UniProt O00541) | inactive: 0
PIGX (UniProt Q8TBF5) | inactive: 0
OTUD4 (UniProt Q01804) | inactive: 0
PARG (UniProt Q86W56) | inactive: 0
OIP5 (UniProt O43482) | inactive: 0
PGD (UniProt P52209) | inactive: 0
PIGS (UniProt Q96S52) | inactive: 0
PIP4K2A (UniProt P48426) | inactive: 0
OPLAH (UniProt O14841) | inactive: 0
OGFOD3 (UniProt Q6PK18) | inactive: 0
PEX13 (UniProt Q92968) | inactive: 0
PCBP1 (UniProt Q15365) | inactive: 0
PIGO (UniProt Q8TEQ8) | inactive: 0
PDHB (UniProt P11177) | inactive: 0
OGFR (UniProt Q9NZT2) | inactive: 0
PLEKHG4 (UniProt Q58EX7) | inactive: 0
PANK1 (UniProt Q8TE04) | inactive: 0
PIP5K1C (UniProt O60331) | inactive: 0
PEX19 (UniProt P40855) | inactive: 0

3 successive entries already listed:
Target | dose-dependent thermal stabilisation call
PES1 (UniProt O00541) | inactive: 0
PIGX (UniProt Q8TBF5) | inactive: 0
OTUD4 (UniProt Q01804) | inactive: 0

Carrying on:

Target | dose-dependent thermal stabilisation call
ORC3L (UniProt Q9UBD5) | inactive: 0
PDAP1 (UniProt Q13442) | inactive: 0
PLA2G15 (UniProt Q8NCC3) | inactive: 0
PI4KB (UniProt Q9UBF8) | inactive: 0
PLXNA1 (UniProt Q9UIW2) | inactive: 0
PEA15 (UniProt Q15121) | inactive: 0
OLA1 (UniProt Q9NTK5) | inactive: 0
PDCD5 (UniProt O14737) | inactive: 0
PDIA6 (UniProt Q15084) | inactive: 0
PFAS (UniProt O15067) | inactive: 0
PLD3 (UniProt Q8IV08) | inactive: 0
PCBP2 (UniProt Q15366) | inactive: 0
PFKFB3 (UniProt Q16875) | inactive: 0
PCNA (UniProt P12004) | inactive: 0
PEX16 (UniProt Q9Y5Y5) | inactive: 0
PJA2 (UniProt O43164) | inactive: 0
PDLIM7 (UniProt Q9NR12) | inactive: 0
OTUD7B (UniProt Q6GQQ9) | inactive: 0
PDE6D (UniProt O43924) | inactive: 0
PIK3R2 (UniProt O00459) | inactive: 0
